These results are taken from WO2024071112A1 (dated 2024).

Chains of the proteins cited; added tags and fusions are not shown. Residues count along the entry.
UniProt P00747, residues 20-810: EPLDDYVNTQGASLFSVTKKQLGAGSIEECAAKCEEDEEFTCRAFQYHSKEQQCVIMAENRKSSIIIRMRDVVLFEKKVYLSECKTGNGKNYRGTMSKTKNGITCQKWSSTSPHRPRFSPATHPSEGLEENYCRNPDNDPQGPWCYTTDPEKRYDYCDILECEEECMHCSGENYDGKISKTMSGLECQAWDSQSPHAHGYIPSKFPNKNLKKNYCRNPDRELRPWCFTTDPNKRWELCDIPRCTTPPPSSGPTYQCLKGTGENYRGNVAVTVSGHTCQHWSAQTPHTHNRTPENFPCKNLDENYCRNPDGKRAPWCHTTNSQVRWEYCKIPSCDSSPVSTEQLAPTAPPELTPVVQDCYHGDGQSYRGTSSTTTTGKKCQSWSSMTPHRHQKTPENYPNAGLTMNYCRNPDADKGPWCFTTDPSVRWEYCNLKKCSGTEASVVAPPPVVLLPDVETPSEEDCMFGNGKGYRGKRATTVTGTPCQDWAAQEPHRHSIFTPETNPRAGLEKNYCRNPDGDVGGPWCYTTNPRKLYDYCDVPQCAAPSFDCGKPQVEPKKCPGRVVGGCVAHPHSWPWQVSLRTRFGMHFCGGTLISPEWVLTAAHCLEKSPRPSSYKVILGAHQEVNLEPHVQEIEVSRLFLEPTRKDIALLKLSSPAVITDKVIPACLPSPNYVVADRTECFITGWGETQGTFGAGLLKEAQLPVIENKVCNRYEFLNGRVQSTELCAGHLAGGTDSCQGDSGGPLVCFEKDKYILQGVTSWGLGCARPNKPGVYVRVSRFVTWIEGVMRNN

For the experiment, the target named is T1, human plasminogen (human, UniProt P00747 20-810, limits assumed).
T1 construct: also called Plg
The experiment can be described thus: ELISA, plate-coated human plasminogen, His-tagged VK and VH peptides bridged and detected by rabbit anti-His tag IgG and HRP anti-rabbit IgG, A450. (In an ELISA, binding on a coated surface is turned into a signal by an enzyme label.)

No constants are given. Whether binding was seen depends on the method and setting. Some binding calls cover weakened binding; strength is not graded here. Sequences can lack the tags named with a protein.

B1: VKc1+VHc3 (His-tagged VKc1 domain peptide combined with His-tagged VHc3 domain peptide) (protein)
VL: RSDIKMTQSPSSMYASLGERVTITCKASQDINSYLSWFQQKPGKSPKTLIYRANRLVDGVPSRFSGSGSGQDYSLTISSLEYEDMGIYYCLQYDEFPFTFGSGTKLEIKDIPWQGLNDIFEAQKIEWHGSHHHHHH
VH: RSEVQLQQSGAELARPGASVKLSCKASGYTFTSYGISWVKQRTGQGLEWIGEIYPNTYYNEKFKGKATLTEDKSSSTAYMELRSLTSEDSAVYFCARHVTVVATDYWGQGTTLTVSSDIPWQGLNDIFEAQKIEWHGSHHHHHH
Turning to B1, the binding result is reported as “binds”.

B2: VKc5+VHc4 (His-tagged VKc5 domain peptide combined with His-tagged VHc4 domain peptide) (protein)
VL: RSDIQMTQSPASLSVSVGETVTITCRASENIYSNLAWYQQKQGKSPQLLVYAATNLADGVPSRFSGSGSGTQYSLKINSLQSEDFGSYYCQHFWGTPYTFGGGTKLEIKDIPWQGLNDIFEAQKIEWHGSHHHHHH
VH: RSEVQLQQSGAELVRPGTSVKMSCKASIYPGGGYAIGWAKQRPGHGLEWIGDIYPGGGYANYNENFKGKATLTADKSSNTAYMQFSSLTSEDSAIYYCARFNYGNHWYFDVWGTGTTVTVSSDIPWQGLNDIFEAQKIEWHGSHHHHHH
Consider B2, for which the binding result is given as “binds”.
